Measurements reported in PubChem BioAssay AID540276 (National Center for Advancing Translational Sciences (NCATS), 2011).
Where “and” joins values, the source holds several entries; their conditions need not be identical. Equal entries are not always repeated. In all, about 300,000 compounds went through this assay and about 5,400 (1.8%) were called active. The inconclusive results got no clear call from the source; some entries with a clear call stand among them for comparison. The call rests on the fitted dose curve; tested in HEK293 cells. Potencies of inconclusive entries are doubtful fits and often do not repeat.
On the % scale 0 is the no-effect control and ±100 the full control effect; potency means the concentration at half of the fitted maximal effect.

Assay: qHTS for inhibitors of binding or entry into cells for Marburg Virus
Settings: Marburg virus pseudotyped entry inhibition, cell reporter; activity change, negative = inhibition: at 37.8 µM (top of the series) unless noted
For CN(CCO)c1ccc(C=NNc2ccc([N+](=O)[O-])cc2S(=O)(=O)Nc2ccccc2C(=O)O)cc1, the Potency was inconclusive: 35.5 µM [inhibitor, single point]. In the case of Cc1cc(C)cc(-n2nnc(C(=O)NCc3ccccc3)c2N)c1, the Potency was “inactive”. With Cc1c(F)cccc1NC(=O)C1CCCN1S(=O)(=O)c1ccc(F)cc1 (configuration not stated) the Potency was “inactive”. With CCN(CC)c1nc(Nc2ccccc2)nc(Oc2ccc(=O)n(C)n2)n1 the Potency was inconclusive: 0.231 µM [inhibitor, single point]. In the case of CC(C)(C)C1=Nn2c(nnc2-c2ccccn2)SC1, the Potency was “inactive”. In the case of CCOC(=O)c1[nH]c2c(c1C)C(=O)CC(c1ccc(OC)c(OC)c1)C2 (configuration not stated), the Potency was “inactive”. With CN(C)CCCN(C(=O)c1ccc2c(c1)CCCC2)c1nc2ccc(F)cc2s1 the Potency was inconclusive: 35.5 µM [inhibitor, single point]. For C=CCOC(=O)C(C(C)=O)[C@@H](NC(=O)OC)c1ccc(Cl)cc1 (some centres not stated), the Potency was “inactive”. For COc1cc(/C=C(\C#N)C(=O)NC2CCCCC2)ccc1OCc1ccc(C(=O)O)cc1, the Potency was inconclusive: 0.562 µM [inhibitor, full curve, poor fit]. With CCc1ccc(NC(=O)c2cc(C)no2)cc1 the Potency was inconclusive: 11.2 µM [activator, single point]. In the case of COc1ccccc1C(=O)Nc1ccc(Oc2ncnc3sc(-c4ccccc4)cc23)cc1, the Potency was “inactive”. With COC(=O)CC1(C(=O)OC)Oc2ccc(Br)cc2C(=O)N1c1ccc(Br)cc1Cl (configuration not stated) the Potency was inconclusive: 35.5 µM [inhibitor, single point]. In the case of CCC(=O)NC(=S)Nc1ccccc1F, the Potency was inconclusive: 35.5 µM [activator, single point]. For CCCN1CNC(=S)N(c2cc(C)ccc2C)C1, the Potency was inconclusive: 7.3 µM [activator, single point]. With Cc1ccc(C[n+]2cc(-c3ccc(Cl)cc3)n3c2CCC3)cc1 the Potency was inconclusive: 35.5 µM [inhibitor, single point]. In the case of O=C(NCc1ccccc1)c1cc(-c2ccncc2)nc2ccccc12, the Potency was inconclusive: 12.6 µM [inhibitor, partial curve, poor fit]. For O=C(Nc1ccc(N2CCOCC2)c(Cl)c1)c1ccco1, the Potency was inconclusive: 35.5 µM [inhibitor, single point]. For O=C(OCCN1C(=O)c2cccc3c(N4CCOCC4)ccc(c23)C1=O)c1ccc(Cl)cc1, the Potency was inconclusive: 4.47 µM [inhibitor, full curve, poor fit]. For COc1ccc(Cl)cc1NC(=O)c1c(-c2ccccc2)noc1C, the Potency was inconclusive: 17.8 µM [inhibitor, single point]. For CNS(=O)(=O)c1cccc(C(=O)OCC(=O)c2cc(C)n(CC3CCCO3)c2C)c1 (configuration not stated), the Potency was inconclusive: 12.6 µM [inhibitor, single point]. In the case of CCc1nc(CNC(=O)C2CCC(=O)N(CCc3ccc(OC)cc3)C2)cs1 (configuration not stated), the Potency was inconclusive: 35.5 µM [inhibitor, single point]. For Cc1ccccc1C(=O)Nc1ccc(C(=O)N/N=C/c2ccc(O)cc2)cc1, the Potency was inconclusive: 15.8 µM [inhibitor, single point]. For CCCOC(=O)c1c(NC(=O)c2nc3ncccn3n2)sc(C(=O)OCC)c1C, the Potency was inconclusive: 1.41 µM [activator, partial curve, poor fit]. With CN(C)C(=O)Oc1ccc2c(c1)O/C(=C\c1cccc(Cl)c1)C2=O the Potency was inconclusive: 3.16 µM [activator, partial curve, poor fit]. In the case of CC(=O)c1cccc(-n2c(=O)c3c4c(sc3n(Cc3ccccc3Cl)c2=O)CN(C(C)=O)CC4)c1, the Potency was inconclusive: 2.51 µM [inhibitor, single point]. For CCOC(=O)C1(CCOC)CCN(Cc2ccc(COC)o2)CC1, the Potency was “inactive”. For Cn1c(SCC(=O)Nc2ccc(F)cc2)nc2c(c1=O)SCC2, the Potency was inconclusive: 3.55 µM [activator, single point]. In the case of CN(C)c1ccc(N=Nc2ccccc2C(=O)OCC(=O)N(C)c2ccccc2)cc1, the Potency was inconclusive: 23.1 µM [inhibitor, partial curve, poor fit]. With Fc1ccc(COc2cccc3cccnc23)cc1 the Potency was “inactive”. With COc1ccccc1NS(=O)(=O)c1ccc2c(c1)OCCO2 the Potency was “inactive”. In the case of COc1ccc(CN(C(=O)c2ccc(-c3ccccc3)[nH]2)C(C(=O)NC(C)(C)C)c2ccncc2)cc1 (configuration not stated), the Potency was inconclusive: 11.2 µM [inhibitor, partial curve, poor fit]. With CCCCN(CC)C(=O)Cn1c(=O)n(-c2ccc(OCC)cc2)c(=O)c2c3c(sc21)CCC3 the Potency was “inactive”. In the case of Cn1nc(C(=O)N2CCN(c3ccccc3)CC2)c2c1-c1ccccc1SC2, the Potency was inconclusive: 6.31 µM [inhibitor, partial curve, poor fit]. With CCCCOc1ccc(CNC(=O)Cn2ncn3c(cc4cc(F)ccc43)c2=O)cc1 the Potency was “inactive”. With Cc1ccc(C2CC(C(F)(F)F)n3nc(C(=O)NCc4ccco4)cc3N2)cc1 (configuration not stated) the Potency was inconclusive: 0.366 µM [inhibitor, partial curve, poor fit]. In the case of CCOc1ccc(CNC(=O)c2ccc(Sc3ccc(C)cc3)c(NC(C)=O)c2)cc1OC, the Potency was inconclusive: 17.8 µM [inhibitor, single point]. For C/C(=N\NC(=O)c1ccccc1)c1ccc(C)c([N+](=O)[O-])c1, the Potency was inconclusive: 0.562 µM [inhibitor, single point]. With O=S(=O)(CCc1ccncc1)C1Cc2cccc3cccc1c23 (configuration not stated) the Potency was “inactive”. With Cc1ccc(Cn2nnc3c(=O)[nH]c(C4CCN(S(=O)(=O)Cc5ccccc5)CC4)nc32)cc1 the Potency was inconclusive: 22.4 µM [inhibitor, single point]. For O=C(CCc1nnc2ccc(NCc3ccc(F)cc3)nn12)NC1CCCC1, the Potency was “inactive”. With CC(C)COc1cccc(C(=O)NC2(C)CCS(=O)(=O)C2)c1 (configuration not stated) the Potency was inconclusive: 11.2 µM [inhibitor, partial curve]. For Cc1ccc(NC(=S)N(CCCN2CCN(C)CC2)Cc2cccs2)cc1C, the Potency was inconclusive: 35.5 µM [inhibitor, single point]. With S=c1[nH]nc(-c2cc(-c3ccccc3)n[nH]2)n1/N=C/c1c2ccccc2cc2ccccc12 the Potency was inconclusive: 25.1 µM [inhibitor, single point]. In the case of N#Cc1ccc(Oc2cnccn2)cc1, the activity change, negative = inhibition was inconclusive: 26.2% [activator]. For COc1ccc(NC(=S)Nc2cccc([N+](=O)[O-])c2)cc1, the Potency was inconclusive: 2.91 µM [inhibitor, partial curve, poor fit]. With Cc1ccc(NC(=O)CNC(C)c2ccccc2)cc1 (configuration not stated) the Potency was inconclusive: 35.5 µM [activator, single point]. With S=C(NCC1CCCO1)N1CCN(c2ccc(Cl)c(Cl)c2)CC1 (configuration not stated) the Potency was inconclusive: 35.5 µM [inhibitor, partial curve, poor fit]. For C=CCN=C(C)C1=C(O)C(C)OC1=O (configuration not stated), the Potency was inconclusive: 2.51 µM [activator, single point]. With COC(=O)C1=C(C)N(c2cc(C)cc(C)c2)/C(=C/c2ccco2)C1=O the Potency was inconclusive: 6.31 µM [inhibitor, single point]. In the case of O=C(O)CSCC(=O)NCc1ccccc1Cl, the Potency was “inactive”. In the case of S=C(NCc1ccc(Cl)cc1)Nc1ccc(Cl)cc1Cl, the Potency was inconclusive: 25.1 µM [activator, partial curve, poor fit]. For CC(CN1CCN(C)CC1)OC(=O)c1ccc(F)cc1 (configuration not stated), the Potency was “inactive”. In the case of CS(=O)(=O)Nc1ccc(C2=NN(C(=O)C3CCCCC3)C(c3cccs3)C2)cc1 (configuration not stated), the Potency was inconclusive: 15.8 µM [inhibitor, single point]. For Cc1ccc(CCCOC(=O)C[N+]2(C)CCCCC2)cc1, the Potency was inconclusive: 7.08 µM [inhibitor, partial curve, poor fit]. For COc1ccc2[nH]cc(CCNC(=O)c3ccc4ccccc4n3)c2c1, the Potency was inconclusive: 11.2 µM [inhibitor, single point]. In the case of N#Cc1nc(-c2ccc(Cl)cc2)oc1NCC1CCCO1 (configuration not stated), the Potency was inconclusive: 2.82 µM [activator, single point]. For O=C(CS(=O)(=O)Cc1ccccc1)N1CCN(c2ccccc2F)CC1, the Potency was inconclusive: 1.58 µM [activator, full curve, poor fit]. With COc1cc(NS(C)(=O)=O)ccc1Nc1c2ccccc2nc2ccccc12 the Potency was active: 730 nM and active: 562 nM. For CC(=O)Nc1ccc(C(=O)N/N=C/c2cc(Br)cc(Br)c2O)cc1, the Potency was active: 10 µM. For COc1ccc(-c2nc(-c3cccnc3)no2)cc1OC, the Potency was inconclusive: 11.2 µM [activator, partial curve, poor fit]. In the case of CCOc1ccc(NC(=O)CSc2nccn2C)cc1, the Potency was inconclusive: 9.2 µM [activator, partial curve, poor fit]. For CCNc1nc(NCC)n2c(SCC(=O)NC34CC5CC(CC(C5)C3)C4)nnc2n1, the Potency was inconclusive: 0.398 µM [activator, partial curve, poor fit]. In the case of Cc1ccc2[nH]c3nc(SCC#N)nnc3c2c1, the Potency was inconclusive: 5.62 µM [inhibitor, single point]. With O=C(CCNC(=O)c1ccccc1Cl)Nc1cc(S(=O)(=O)N2CCOCC2)ccc1N1CCCC1 the Potency was “inactive”. For Cc1ccc(Cn2ncc3c(N4CCN(C5CCCC5)CC4)ncnc32)cc1, the Potency was inconclusive: 3.98 µM [inhibitor, full curve]. For COC(=O)C(C)Sc1nnc(-c2ccncc2)o1 (configuration not stated), the Potency was inconclusive: 20.6 µM [activator, single point]. In the case of CCc1ccccc1NC(=O)CSc1nnc(CNC(=O)c2ccco2)n1C, the Potency was inconclusive: 14.1 µM [activator, partial curve, poor fit].
